Results from PMC10008583.
These are yes or no findings as the source states them, for the method shown. In cells and extracts the contact can be indirect. Some binding calls cover weakened binding; strength is not graded here. For some assays here: Sequences can lack the tags named with a protein.

T1: Ubiquitin specific protease 22 (USP22), endogenous (human (endogenous in HCCLM3 and Huh7)) (UniProt Q9UPT9)
T1 sequence: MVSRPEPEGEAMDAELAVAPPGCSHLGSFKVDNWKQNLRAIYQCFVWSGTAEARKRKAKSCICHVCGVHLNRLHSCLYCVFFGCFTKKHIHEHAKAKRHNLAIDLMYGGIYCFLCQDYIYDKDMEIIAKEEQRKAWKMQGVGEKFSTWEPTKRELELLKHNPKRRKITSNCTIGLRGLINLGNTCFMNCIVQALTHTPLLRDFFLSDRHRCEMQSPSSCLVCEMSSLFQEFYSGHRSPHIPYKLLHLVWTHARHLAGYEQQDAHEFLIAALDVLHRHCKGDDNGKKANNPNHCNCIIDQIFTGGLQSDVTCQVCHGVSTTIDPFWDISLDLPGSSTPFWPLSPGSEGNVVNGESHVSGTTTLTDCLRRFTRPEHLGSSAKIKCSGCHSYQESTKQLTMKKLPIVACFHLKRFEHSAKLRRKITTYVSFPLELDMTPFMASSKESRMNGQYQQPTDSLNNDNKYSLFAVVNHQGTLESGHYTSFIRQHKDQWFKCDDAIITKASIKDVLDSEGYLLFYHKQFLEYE

T2: FLAG-USP22, full-length (FL) (human) (UniProt Q9UPT9)
T2 sequence: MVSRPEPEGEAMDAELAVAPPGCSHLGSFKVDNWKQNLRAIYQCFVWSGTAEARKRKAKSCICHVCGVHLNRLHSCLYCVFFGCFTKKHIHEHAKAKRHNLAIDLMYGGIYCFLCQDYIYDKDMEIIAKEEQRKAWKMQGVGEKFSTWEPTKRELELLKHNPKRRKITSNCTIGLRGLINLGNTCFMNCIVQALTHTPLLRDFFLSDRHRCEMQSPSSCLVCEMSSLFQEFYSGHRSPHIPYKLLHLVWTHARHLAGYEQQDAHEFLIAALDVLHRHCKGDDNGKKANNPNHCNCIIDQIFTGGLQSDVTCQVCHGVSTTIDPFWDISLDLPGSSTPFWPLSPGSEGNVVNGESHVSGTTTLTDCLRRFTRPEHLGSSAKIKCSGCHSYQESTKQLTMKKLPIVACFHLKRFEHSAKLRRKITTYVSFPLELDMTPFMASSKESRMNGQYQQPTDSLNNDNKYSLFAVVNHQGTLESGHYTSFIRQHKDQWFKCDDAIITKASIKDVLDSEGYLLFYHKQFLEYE


Legend:
[1] = target: T1, Ubiquitin specific protease 22 (USP22), endogenous (human (endogenous in HCCLM3 and Huh7)); assay: co-IP; endogenous proteins; whole cell lysates of HCCLM3 and Huh7 cells immunoprecipitated with USP22 antibody or IgG, Protein G Sepharose 4 Fast Flow, western blotting
[2] = target: T2, FLAG-USP22, full-length (FL) (human); assay: co-IP; HEK293 cells transfected with expression plasmids of ZEB1 and USP22 (full length or truncated mutants) or vector for 24 h; whole cell lysates

Row | binding [1] | binding [2] | Binder
1 | binds | – | ZEB1, endogenous (protein, UniProt P37275 1-1124) MADGPRCKRRKQANPRRNNVTNYNTVVETNSDSDDEDKLHIVEEESVTDAADCEGVPEDDLPTDQTVLPGRSSEREGNAKNCWEDDRKEGQEILGPEAQADEAGCTVKDDECESDAENEQNHDPNVEEFLQQQDTAVIFPEAPEEDQRQGTPEASGHDENGTPDAFSQLLTCPYCDRGYKRFTSLKEHIKYRHEKNEDNFSCSLCSYTFAYRTQLERHMTSHKSGRDQRHVTQSGCNRKFKCTECGKAFKYKHHLKEHLRIHSGEKPYECPNCKKRFSHSGSYSSHISSKKCISLIPVNGRPRTGLKTSQCSSPSLSASPGSPTRPQIRQKIENKPLQEQLSVNQIKTEPVDYEFKPIVVASGINCSTPLQNGVFTGGGPLQATSSPQGMVQAVVLPTVGLVSPISINLSDIQNVLKVAVDGNVIRQVLENNQANLASKEQETINASPIQQGGHSVISAISLPLVDQDGTTKIIINYSLEQPSQLQVVPQNLKKENPVATNSCKSEKLPEDLTVKSEKDKSFEGGVNDSTCLLCDDCPGDINALPELKHYDLKQPTQPPPLPAAEAEKPESSVSSATGDGNLSPSQPPLKNLLSLLKAYYALNAQPSAEELSKIADSVNLPLDVVKKWFEKMQAGQISVQSSEPSSPEPGKVNIPAKNNDQPQSANANEPQDSTVNLQSPLKMTNSPVLPVGSTTNGSRSSTPSPSPLNLSSSRNTQGYLYTAEGAQEEPQVEPLDLSLPKQQGELLERSTITSVYQNSVYSVQEEPLNLSCAKKEPQKDSCVTDSEPVVNVIPPSANPINIAIPTVTAQLPTIVAIADQNSVPCLRALAANKQTILIPQVAYTYSTTVSPAVQEPPLKVIQPNGNQDERQDTSSEGVSNVEDQNDSDSTPPKKKMRKTENGMYACDLCDKIFQKSSSLLRHKYEHTGKRPHECGICKKAFKHKHHLIEHMRLHSGEKPYQCDKCGKRFSHSGSYSQHMNHRYSYCKREAEERDSTEQEEAGPEILSNEHVGARASPSQGDSDERESLTREEDEDSEKEEEEEDKEMEELQEEKECEKPQGDEEEEEEEEEVEEEEVEEAENEGEEAKTEGLMKDDRAESQASSLGQKVGESSEQVSEEKTNEA
2 | – | binds | ZEB1, expressed from plasmid in HEK293 cells (protein, UniProt P37275 1-1124) MADGPRCKRRKQANPRRNNVTNYNTVVETNSDSDDEDKLHIVEEESVTDAADCEGVPEDDLPTDQTVLPGRSSEREGNAKNCWEDDRKEGQEILGPEAQADEAGCTVKDDECESDAENEQNHDPNVEEFLQQQDTAVIFPEAPEEDQRQGTPEASGHDENGTPDAFSQLLTCPYCDRGYKRFTSLKEHIKYRHEKNEDNFSCSLCSYTFAYRTQLERHMTSHKSGRDQRHVTQSGCNRKFKCTECGKAFKYKHHLKEHLRIHSGEKPYECPNCKKRFSHSGSYSSHISSKKCISLIPVNGRPRTGLKTSQCSSPSLSASPGSPTRPQIRQKIENKPLQEQLSVNQIKTEPVDYEFKPIVVASGINCSTPLQNGVFTGGGPLQATSSPQGMVQAVVLPTVGLVSPISINLSDIQNVLKVAVDGNVIRQVLENNQANLASKEQETINASPIQQGGHSVISAISLPLVDQDGTTKIIINYSLEQPSQLQVVPQNLKKENPVATNSCKSEKLPEDLTVKSEKDKSFEGGVNDSTCLLCDDCPGDINALPELKHYDLKQPTQPPPLPAAEAEKPESSVSSATGDGNLSPSQPPLKNLLSLLKAYYALNAQPSAEELSKIADSVNLPLDVVKKWFEKMQAGQISVQSSEPSSPEPGKVNIPAKNNDQPQSANANEPQDSTVNLQSPLKMTNSPVLPVGSTTNGSRSSTPSPSPLNLSSSRNTQGYLYTAEGAQEEPQVEPLDLSLPKQQGELLERSTITSVYQNSVYSVQEEPLNLSCAKKEPQKDSCVTDSEPVVNVIPPSANPINIAIPTVTAQLPTIVAIADQNSVPCLRALAANKQTILIPQVAYTYSTTVSPAVQEPPLKVIQPNGNQDERQDTSSEGVSNVEDQNDSDSTPPKKKMRKTENGMYACDLCDKIFQKSSSLLRHKYEHTGKRPHECGICKKAFKHKHHLIEHMRLHSGEKPYQCDKCGKRFSHSGSYSQHMNHRYSYCKREAEERDSTEQEEAGPEILSNEHVGARASPSQGDSDERESLTREEDEDSEKEEEEEDKEMEELQEEKECEKPQGDEEEEEEEEEVEEEEVEEAENEGEEAKTEGLMKDDRAESQASSLGQKVGESSEQVSEEKTNEA
